No constants are given. Whether binding was seen depends on the method and setting. Binding seen in cells or lysates may run through a third protein. Binding can be weak; no strength is given. Where a sequence is shown, tags or fusion partners need not be part of it.
Key:
[1] = biological target: CdDHN4-L-cYFP (bermudagrass (Cynodon dactylon x Cynodon transvaalensis) 'Tifway'); experiment: split reporter; BiFC: cYFP and nYFP fusions transiently co-transformed into leaves of 5-week-old N. benthamiana; YFP signal by confocal microscopy after 48-72 h in darkness
[2] = biological target: CdDHN4-S-cYFP (bermudagrass (Cynodon dactylon x Cynodon transvaalensis) 'Tifway'); experiment: as above

B1: nYFP-AtADH (enzyme, UniProt P06525 1-379)
chain: MSTTGQIIRCKAAVAWEAGKPLVIEEVEVAPPQKHEVRIKILFTSLCHTDVYFWEAKGQTPLFPRIFGHEAGGIVESVGEGVTDLQPGDHVLPIFTGECGECRHCHSEESNMCDLLRINTERGGMIHDGESRFSINGKPIYHFLGTSTFSEYTVVHSGQVAKINPDAPLDKVCIVSCGLSTGLGATLNVAKPKKGQSVAIFGLGAVGLGAAEGARIAGASRIIGVDFNSKRFDQAKEFGVTECVNPKDHDKPIQQVIAEMTDGGVDRSVECTGSVQAMIQAFECVHDGWGVAVLVGVPSKDDAFKTHPMNFLNERTLKGTFFGNYKPKTDIPGVVEKYMNKELELEKFITHTVPFSEINKAFDYMLKGESIRCIITMGA
binding [1]: binds
binding [2]: binds
